Experimental data reported in paper PMC4001879.
Results are given in words; binding and its absence hold for the method and conditions named. In cells and extracts the contact can be indirect. Some binding calls cover weakened binding; strength is not graded here.

Amino acid sequences for entries named in this document (tags omitted).
UniProt O94916: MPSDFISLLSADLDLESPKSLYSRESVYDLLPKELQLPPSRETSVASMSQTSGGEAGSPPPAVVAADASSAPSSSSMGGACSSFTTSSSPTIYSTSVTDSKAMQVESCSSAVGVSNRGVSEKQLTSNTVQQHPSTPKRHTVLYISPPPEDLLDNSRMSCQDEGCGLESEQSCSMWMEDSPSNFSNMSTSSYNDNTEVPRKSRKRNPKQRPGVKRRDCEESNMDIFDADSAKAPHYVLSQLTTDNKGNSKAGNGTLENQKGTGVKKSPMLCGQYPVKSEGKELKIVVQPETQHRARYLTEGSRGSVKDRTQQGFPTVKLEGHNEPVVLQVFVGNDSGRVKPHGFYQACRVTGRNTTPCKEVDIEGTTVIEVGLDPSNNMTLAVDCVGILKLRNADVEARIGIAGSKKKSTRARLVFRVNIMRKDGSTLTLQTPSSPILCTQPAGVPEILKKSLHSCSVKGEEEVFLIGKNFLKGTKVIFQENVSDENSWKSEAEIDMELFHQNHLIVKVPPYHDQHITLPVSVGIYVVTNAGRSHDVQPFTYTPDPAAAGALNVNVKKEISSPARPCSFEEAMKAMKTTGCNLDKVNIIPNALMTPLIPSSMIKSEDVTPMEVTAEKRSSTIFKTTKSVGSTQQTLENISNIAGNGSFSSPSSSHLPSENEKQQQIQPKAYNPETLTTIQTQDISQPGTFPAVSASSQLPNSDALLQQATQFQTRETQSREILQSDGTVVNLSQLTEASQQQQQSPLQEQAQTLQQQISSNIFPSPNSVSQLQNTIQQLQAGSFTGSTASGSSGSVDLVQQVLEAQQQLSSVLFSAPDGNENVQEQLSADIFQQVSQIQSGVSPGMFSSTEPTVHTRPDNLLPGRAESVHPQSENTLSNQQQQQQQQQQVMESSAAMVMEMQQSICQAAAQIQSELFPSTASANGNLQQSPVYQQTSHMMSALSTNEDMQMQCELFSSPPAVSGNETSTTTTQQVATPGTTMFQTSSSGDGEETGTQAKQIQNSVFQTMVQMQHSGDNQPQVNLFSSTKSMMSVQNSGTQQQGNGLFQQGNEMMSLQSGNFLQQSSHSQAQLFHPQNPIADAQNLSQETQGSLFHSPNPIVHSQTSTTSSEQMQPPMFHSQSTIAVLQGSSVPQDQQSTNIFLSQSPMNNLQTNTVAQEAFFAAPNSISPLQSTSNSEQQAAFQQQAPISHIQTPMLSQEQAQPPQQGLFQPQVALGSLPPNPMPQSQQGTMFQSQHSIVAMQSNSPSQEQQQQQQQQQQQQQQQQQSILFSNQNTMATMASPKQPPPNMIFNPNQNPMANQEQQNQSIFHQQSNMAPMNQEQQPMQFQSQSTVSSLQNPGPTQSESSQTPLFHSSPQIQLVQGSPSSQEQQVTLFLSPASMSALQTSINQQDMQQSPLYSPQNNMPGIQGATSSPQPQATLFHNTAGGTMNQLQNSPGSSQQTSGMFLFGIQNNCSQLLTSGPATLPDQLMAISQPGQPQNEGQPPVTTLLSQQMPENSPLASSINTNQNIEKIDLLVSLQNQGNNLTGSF
UniProt P31946: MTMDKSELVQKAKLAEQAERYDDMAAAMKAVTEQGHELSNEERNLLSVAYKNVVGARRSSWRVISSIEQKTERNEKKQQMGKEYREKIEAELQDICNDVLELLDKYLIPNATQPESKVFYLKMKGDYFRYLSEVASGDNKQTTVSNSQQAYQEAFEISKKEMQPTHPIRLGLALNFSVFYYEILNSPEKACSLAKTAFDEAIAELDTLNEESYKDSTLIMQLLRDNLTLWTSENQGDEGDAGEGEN
UniProt P62258: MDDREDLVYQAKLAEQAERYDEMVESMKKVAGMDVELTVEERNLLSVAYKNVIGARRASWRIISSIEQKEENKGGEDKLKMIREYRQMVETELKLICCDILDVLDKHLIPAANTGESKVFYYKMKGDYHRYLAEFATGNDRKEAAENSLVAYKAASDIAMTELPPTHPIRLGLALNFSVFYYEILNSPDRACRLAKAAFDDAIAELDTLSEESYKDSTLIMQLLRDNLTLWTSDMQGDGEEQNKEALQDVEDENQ

These substances were tested against NFAT5-V5 (NFAT5, isoform c, NP_006590) (UniProt O94916) (assay: co-IP; NFAT5-V5 immunoprecipitated with anti-V5 antibody conjugated Dynabeads from precleared extracts of transfected HEK293 cells (PhosphoSafe Extraction Reagent); cells incubated at 300 or 500 mosmol/kg (NaCl varied) for 1 h before harvest; immunoprecipitates immunoblotted).

| binding | Substance |
| --- | --- |
| no binding | 14-3-3-β (from UniProt P31946 1-246) |
| no binding | 14-3-3-ε (from UniProt P62258 1-255) |
| binds | CDK5 (from UniProt Q00535 1-292) |
